{"source": "PubChem BioAssay AID1259415", "about": "(National Center for Advancing Translational Sciences (NCATS), 2018)", "note": "Screen size: about 410,000 compounds; about 18,000 (4.4%) were called active. This list was built around the results that the source calls inconclusive (neither active nor inactive); the mix of calls is not that of the screen. No stated cut-off is given here; in the data, active means activity change below about -60%; inconclusive means no clear call, values can overlap the other calls; inactive means above about -39%."}
{"assay": "qHTS Assay for inhibitors of the human cytomegalovirus (HCMV); further: on the % scale 0 is the no-effect control and ±100 the full control effect", "conditions": "HFF cells, HCMV-luciferase reporter, 72 h; at 57.5 µM; hits give low values", "procedure,_shortened": "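Screen run at 2 compound doses on HFFs infected with reporter HCMV, MOI 1 PFU/cell. Luciferase activity from cell lysates at 72 h post infection gave inhibition relative to buffer-only and Salinomycin wells.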"}
{"compound": "CC1=CCC2C(=O)N(c3ccc(C)cc3)C(=O)C2C1", "note": "(configuration not stated)", "activity change, negative = inhibition": "inconclusive: -40.6%"}
{"compound": "O=C(Nc1cccnc1)c1ccc(Cl)c(S(=O)(=O)N2CCc3ccccc32)c1", "activity change, negative = inhibition": "inconclusive: -51%"}
{"compound": "CCN1/C(=C/C(=S)Nc2ccccc2)Sc2ccccc21", "activity change, negative = inhibition": "active: -90.8%"}
{"compound": "CC(C)Cn1c(N)c(C(=O)COC(=O)c2ccc3c(c2)OCCO3)c(=O)n(C)c1=O", "activity change, negative = inhibition": "inconclusive: -42.3%"}
{"compound": "CCOCCCNC(=O)CN1C(=O)COc2ccc(S(=O)(=O)N3CC(C)CC(C)C3)cc21", "note": "(configuration not stated)", "activity change, negative = inhibition": "inconclusive: -50.5%"}
{"compound": "CC1=C(C(=O)OCc2ccccc2)C(c2ccc(Br)cc2)NC(=O)N1CCCCCC(=O)O", "note": "(configuration not stated)", "activity change, negative = inhibition": "inactive: 40.8%"}
{"compound": "CC(C)c1ccc(/C=C2\\SC(N3CCCC3)=NC2=O)cc1", "activity change, negative = inhibition": "inactive: 21.1%"}
{"compound": "CCOC(=O)/C=C1\\SCC(=O)N1CC(=O)NC(c1ccccc1)c1ccccc1", "activity change, negative = inhibition": "inconclusive: -50.5%"}
{"compound": "O=S(=O)(Nc1cccc(S(=O)(=O)N2CCCC2)c1)c1ccc(Cl)cc1", "activity change, negative = inhibition": "inactive: -38.6%"}
{"compound": "CCN(Cc1nc2cc(Cl)ccc2c(=O)[nH]1)C(=O)c1cccc(OCc2c(C)noc2C)c1", "activity change, negative = inhibition": "inactive: 6.88%"}
{"compound": "CCOc1ccc(C(=O)/C=C/c2cn(CC(O)CN3CCc4ccccc43)c3ccccc23)cc1", "note": "(configuration not stated)", "activity change, negative = inhibition": "inactive: -22.8%"}
{"compound": "CCOc1ccc(N(CC(=O)NC2CCCCC2)C(=O)CCC(=O)Nc2nccs2)cc1", "activity change, negative = inhibition": "inactive: 17.6%"}
{"compound": "COc1ccc(S(=O)(=O)N2CCOC2CNC(=O)C(=O)NCCc2ccccc2OC)cc1", "note": "(configuration not stated)", "activity change, negative = inhibition": "inactive: -28.7%"}
{"compound": "CCOc1ccc(CN2CCN(Cc3ccc4c(c3)c3ccccc3n4CC)CC2)cc1", "activity change, negative = inhibition": "inactive: 101%"}
{"compound": "Nc1ccc(C(=O)N/N=C/c2cccc(Oc3ccccc3)c2)cc1", "activity change, negative = inhibition": "inconclusive: -50.8%"}
{"compound": "c1ccc2c(c1)CCCc1cc(NCCN3CCOCC3)nnc1-2", "activity change, negative = inhibition": "inconclusive: -56.7%"}
{"compound": "CC1CCCC(C)N1CCCNC(=O)c1ccc2c(c1)NC(=O)c1ccccc1S2", "note": "(configuration not stated)", "activity change, negative = inhibition": "inactive: -29%"}
{"compound": "COc1ccc(C(=O)Nc2oc(-c3ccccc3)c(-c3ccccc3)c2C#N)cc1", "activity change, negative = inhibition": "inconclusive: -49.2%"}
{"compound": "Cc1cccc(C)c1NC(=O)C(c1ccc(C#N)cc1)n1c(=O)c(-c2ccccc2)nc2ccccc21", "note": "(configuration not stated)", "activity change, negative = inhibition": "inconclusive: -50.2%"}
{"compound": "COc1ccc(/C=C(/NC(=O)c2ccc(Br)o2)C(=O)Nc2cccc(C(=O)O)c2)cc1", "activity change, negative = inhibition": "inconclusive: -59.9%"}
{"compound": "CCC1Sc2ccccc2N(CC(=O)NCc2ccc(C)cc2)C1=O", "note": "(configuration not stated)", "activity change, negative = inhibition": "inactive: 7.1%"}
{"compound": "Cc1ccc(S(=O)(=O)N2CCN(C(=O)CCC(=O)NCCc3ccc(S(N)(=O)=O)cc3)CC2)c(C)c1", "activity change, negative = inhibition": "inconclusive: -47.9%"}
